Test [1] concerns the target T1, GFP-SEPT6 (human) (UniProt Q14141).
T1 sequence: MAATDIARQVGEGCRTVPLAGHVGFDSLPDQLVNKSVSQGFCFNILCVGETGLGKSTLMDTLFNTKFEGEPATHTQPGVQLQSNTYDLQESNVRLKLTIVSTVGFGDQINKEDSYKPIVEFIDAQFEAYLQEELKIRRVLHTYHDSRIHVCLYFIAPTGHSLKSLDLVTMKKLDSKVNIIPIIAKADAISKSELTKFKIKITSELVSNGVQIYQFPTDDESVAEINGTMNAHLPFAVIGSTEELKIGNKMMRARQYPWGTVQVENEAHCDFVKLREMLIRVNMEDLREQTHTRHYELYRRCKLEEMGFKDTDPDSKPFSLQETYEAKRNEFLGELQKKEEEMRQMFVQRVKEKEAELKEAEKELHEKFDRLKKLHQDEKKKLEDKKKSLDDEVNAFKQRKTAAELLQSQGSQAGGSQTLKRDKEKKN
Briefly: co-IP; GFP-Trap agarose on lysates of HeLa cells stably expressing SEPT6-GFP, infected with S. flexneri AfaI (MOI 10) for 4 h; lysis buffer 10 mM Tris/Cl pH 7.5, 150 mM NaCl, 0.5 mM EDTA, 0.5% NP-40; 1 h at room temperature; immunoblot. (In general: In western blotting, separated proteins are transferred to a membrane and probed.)

The chains behind the UniProt entries cited, without tags or fusion partners.
UniProt O00429: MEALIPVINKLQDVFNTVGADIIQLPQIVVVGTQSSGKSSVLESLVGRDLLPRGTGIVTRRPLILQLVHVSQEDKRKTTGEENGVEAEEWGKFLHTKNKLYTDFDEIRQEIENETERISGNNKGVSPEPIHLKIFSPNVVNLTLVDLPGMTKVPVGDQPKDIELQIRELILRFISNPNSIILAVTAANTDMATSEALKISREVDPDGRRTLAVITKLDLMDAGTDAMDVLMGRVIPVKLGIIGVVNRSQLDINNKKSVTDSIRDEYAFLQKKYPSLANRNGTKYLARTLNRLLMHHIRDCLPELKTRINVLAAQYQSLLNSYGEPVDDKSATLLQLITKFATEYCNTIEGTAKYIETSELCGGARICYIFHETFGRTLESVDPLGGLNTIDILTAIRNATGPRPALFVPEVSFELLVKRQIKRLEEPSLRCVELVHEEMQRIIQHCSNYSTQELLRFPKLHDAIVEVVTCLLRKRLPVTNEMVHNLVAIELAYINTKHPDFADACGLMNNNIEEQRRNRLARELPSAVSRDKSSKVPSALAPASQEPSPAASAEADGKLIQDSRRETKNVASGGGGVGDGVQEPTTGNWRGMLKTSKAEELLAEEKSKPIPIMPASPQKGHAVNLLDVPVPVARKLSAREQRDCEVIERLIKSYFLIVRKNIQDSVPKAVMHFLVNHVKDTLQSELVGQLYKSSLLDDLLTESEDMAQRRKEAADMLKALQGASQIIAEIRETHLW

The target of test [2] is T1, GFP-SEPT6 (human). Briefly: co-IP; GFP-Trap beads on lysates of uninfected HeLa cells stably expressing GFP-SEPT6 (GFP cells as control); 1 h at 4°C, washed 3x; immunoblot.

From publication PMC4931556 come the findings set out here.

No constants are given. Whether binding was seen depends on the method and setting. In cells and extracts the contact can be indirect. Some results given as binding are weak or reduced against the parent protein; the word gives no strength. Where a sequence is shown, tags or fusion partners need not be part of it.

For p62 (from UniProt Q13501 1-440), in test [1], the binding entry is “binds”.
Take “dynamin-related protein 1 (Drp1) (from UniProt O00429 1-736)”: the binding result in test [2] is listed as “binds”.
